Assay results as given in PubChem BioAssay AID504842 (National Center for Advancing Translational Sciences (NCATS), 2011).
The whole screen tested about 330,000 compounds, of which about 100 (0.03%) were called active. The inconclusive results got no clear call from the source; some entries with a clear call stand among them for comparison. Calls follow the shape of the dose curve; as a rule, active = well fitted inhibition curve with a large enough effect; inconclusive = small, poorly fitted or top-dose-only effect; inactive = flat fitted curve, though single readings scatter. Potencies of inconclusive entries are doubtful fits and often do not repeat.

Tested on: Chaperonin Mm-Cpn (Methanococcus maripaludis)
Assay: Inhibitors of TCP-1 ring complex (TRiC) of Methanococcus maripaludis (MmCpn): qHTS; also: nearly all actives have a fitted effect of over 80% in size;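 as to Potency: enzyme at 25 nM with ATP substrate at 10 µM during the reaction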
Conditions: purified Mm-Cpn ATPase, ADP Transcreener TR-FRET; activity, negative = inhibition: at the top concentration
Outline: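 Compound-treated chaperonin, 25 nM final, turns over 10 uM ATP at 37°C for 30 min following a 10 min preincubation; ADP generated competes with ADP-d2 for Eu-cryptate antibody, lowering FRET.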
% is scaled to controls: 0 for no effect and ±100 for the full control effect; potency is read from the fitted curve at half-maximal effect.

Potency, inconclusive:
Cc1c(NC(=O)OCCNC(=O)COc2ccc(Cl)cc2Cl)sc(=S)n1C 56.2 µM [inhibitor, single point]
CCCCNC(=O)C1CCN(S(=O)(=O)c2c(C)noc2/C=C\c2ccc(OC)cc2)CC1 20 µM [inhibitor, single point]
CCOc1ccc(-c2nn(-c3ccccc3)cc2/C=C2\SC(N)=NC2=O)cc1C 100 µM [inhibitor, single point]
CCOCCCNC(=O)c1cc(Sc2ccc(C)cc2)nc2ccccc12 22.4 µM [inhibitor, single point]
COc1ccc(C2N(c3cc(Cl)ccc3OC)C(=O)C3CCCN32)cc1OC (stereo not drawn) 89.1 µM [inhibitor, single point]
Cc1ccc(C)c2[nH]c(=O)c(C(c3nnnn3Cc3ccco3)N3CCc4ccccc4C3)cc12 (stereo not drawn) 100 µM [inhibitor, single point]
Clc1ccc(-c2cn3cc(Br)ccc3n2)cc1Cl 112 µM [inhibitor, partial curve, poor fit]
COc1ccccc1CN=C1Nc2ccccc2CS1 79.4 µM [inhibitor, partial curve, poor fit]
NC(=O)CN1CCOCCN(CC(N)=O)CCOCC1 8.91 µM [inhibitor, single point]
O=C(NCCCN1CCc2ccccc2C1)C1CCN(S(=O)(=O)N2CCCC2)CC1 112 µM [inhibitor, partial curve, poor fit]
O=C(c1cc2sccc2n1Cc1ccc(F)cc1)N1CCN(c2nc3ccccc3s2)CC1 100 µM [inhibitor, single point]
CCn1nc(C(=O)Nc2ccc(C)c(C)c2)c(Cl)c1Cl 6.31 µM [inhibitor, single point]
Cc1nn(C)cc1/C=N/NC(=O)c1ccc2c(c1)OCO2 15.8 µM [inhibitor, single point]
C=C(C)c1cccc(C(C)(C)NC(=O)NNC(=O)c2ccccc2O)c1 100 µM [inhibitor, single point]
COc1ccc(/C(C)=N/NC(=O)c2sccc2-n2cccc2)cc1 79.4 µM [inhibitor, single point]
Cc1ccc(S(=O)(=O)N(CC(=O)NN=C2CCN(C)CC2)c2ccc(F)cc2)cc1 15.8 µM [inhibitor, single point]
COc1ccc(-c2nnc(N(C)C(=O)c3ccno3)s2)cc1 251 µM [inhibitor, partial curve, poor fit]
O=C(CSc1ncccc1-c1nc2ccccc2[nH]1)N1CCN(c2ccccc2F)CC1 70.8 µM [inhibitor, partial curve]
O=C(COC(=O)/C=C/c1ccc(OC(F)F)cc1)NCCN1C(=O)CSC1=O 89.1 µM [inhibitor, single point]
COc1ccc(CN(C)C(=O)COC(=O)c2cnc(Cl)c(Cl)c2)cc1 25.1 µM [inhibitor, single point]
COc1ccc(NC(=O)CSc2ccc3nnc(-c4cccnc4)n3n2)cc1 100 µM [inhibitor, single point]
CCOC(=O)C1CCN(C(=O)c2sc3ncnc(N4CCC(C)CC4)c3c2C)CC1 224 µM [inhibitor, partial curve, poor fit]
COc1cc(-n2c(C)nc3cc(C(=O)NCc4ccco4)ccc32)cc(OC)c1OC 89.1 µM [inhibitor, single point]
COc1ccc(NC(=O)CSc2nc3sc(C)c(C)c3c(=O)n2Cc2ccco2)cc1 56.2 µM [inhibitor, single point]
Cc1ccc(NC(=O)Cn2ncc(Cl)c(Cl)c2=O)cc1S(=O)(=O)N1CCCCC1 112 µM [inhibitor, partial curve, poor fit]
COc1ccc(NC(=O)c2ccco2)c2ccccc12 100 µM [inhibitor, single point]
CC(=O)Nc1ccc(N=Cc2ccc(OCc3ccccc3)cc2)cc1 22.4 µM [inhibitor, single point]
CCCC(C)C(=O)Nc1ccc(S(N)(=O)=O)cc1 (stereo not drawn) 100 µM [inhibitor, single point]
CCCn1c(SCC(=O)Nc2ccccc2N2CCCCC2)nc2c1c(=O)n(C)c(=O)n2C 100 µM [inhibitor, single point]
Cc1cc2cc(CNC(=S)Nc3ccc(OC(F)F)cc3)ccc2n1C 224 µM [inhibitor, partial curve, poor fit]
COc1ccc(-c2ccnc(-c3ccc(O)cc3)n2)cc1 28.2 µM [inhibitor, single point]
CCN(CC)c1ccc(NC(=O)c2ccccc2)cc1S(=O)(=O)Nc1ccccc1OC 63.1 µM [inhibitor, single point]
CCOC(=O)c1c(NC(=O)COC(=O)c2ccc(O)cc2)sc(C(=O)N(C)C)c1C 100 µM [inhibitor, single point]
O=C(NOC(=O)c1ccccc1F)c1ccc(OC(F)F)cc1 11.2 µM [inhibitor, single point]
CC(C)(C)n1nnnc1C(c1cccnc1)N1CCN(c2ccccn2)CC1 (stereo not drawn) 28.2 µM [inhibitor, single point]
O=C(COC(=O)c1ccccc1F)NNC(=O)c1ccccc1 28.2 µM [inhibitor, single point]
COc1ccccc1CCC(=O)NC1CCCN(c2ccc(C(F)(F)F)cn2)C1 (stereo not drawn) 316 µM [inhibitor, partial curve, poor fit]
C=CCNc1sc(C(=O)C2CC2)c(N)c1C#N 12.6 µM [inhibitor, single point]
CNC(=S)N1N=C(c2ccc(Br)cc2)CC1c1ccc(OC)cc1 (stereo not drawn) 70.8 µM [inhibitor, partial curve, poor fit]
COc1ccccc1Nc1nc(-c2sc(NC(=O)c3cccc(Cl)c3)nc2C)cs1 126 µM [inhibitor, partial curve, poor fit]
CCOC(=O)CC1C(=O)NCCN1C(=O)c1sc2ccccc2c1Cl (stereo not drawn) 56.2 µM [inhibitor, single point]
O=C(CCN1C(=O)C2CCCCC2C1=O)NNC(=O)c1cccc(Cl)c1 (stereo not drawn) 15.8 µM [inhibitor, single point]
CC(C)OCCCN1CN(S(=O)(=O)c2cccc(Cl)c2)c2nc3ccccc3nc21 100 µM [inhibitor, single point]
CN(CCC1CCCCO1)C(=O)CCc1nnc(C2CCCCC2)o1 (stereo not drawn) 22.4 µM [inhibitor, single point]
COc1ccc(N2C(S)=C(C#N)C(=O)NC2c2ccco2)cc1 (stereo not drawn) 70.8 µM [inhibitor, single point]
N/C(=N\OC(=O)CCCN1C(=O)c2ccccc2C1=O)c1ccc(Cl)cc1 100 µM [inhibitor, single point]
COc1ccc(N2C(=O)c3ccccc3NC2c2ccc(OC)c(CSc3ccccn3)c2)cc1 (stereo not drawn) 31.6 µM [inhibitor, single point]
COC(=O)[C@H](C(C)C)N(Cc1ccccc1)S(=O)(=O)CCNC1CCCC1 11.2 µM [inhibitor, single point]
COc1ccc2[nH]c(CN3CCC(CO)(CCOc4ccccc4)CC3)c(C)c2c1 70.8 µM [inhibitor, single point]

Reprinted at random: 2 entries already listed.
Potency, inconclusive:
CCOCCCNC(=O)c1cc(Sc2ccc(C)cc2)nc2ccccc12 22.4 µM [inhibitor, single point]
COc1ccccc1CN=C1Nc2ccccc2CS1 79.4 µM [inhibitor, partial curve, poor fit]

Next part:

activity, negative = inhibition, inactive:
O=[N+]([O-])c1ccccc1OCCOc1ccccc1[N+](=O)[O-] -19.2%
CCCOc1ccc(-c2nc(C#N)c(N3CCN(C)CC3)o2)cc1 -1.62%
COCCOc1ccc(C(F)(F)F)cc1NC(=O)c1ccccc1F 1.08%
CN(C)C(=O)c1cn(CCC#N)nc1-c1ccc2ccccc2c1 1.24%
O=c1oc2cc(Br)ccc2n1CSC1=NCCS1 -0.467%
CCOc1ccc2oc(=O)cc(C)c2c1 2.04%
O=C(NCCN1CCCCC1)c1ccc(Oc2cc(Cl)cc(Cl)c2)o1 -0.332%
NC(=O)c1c(NC(=O)CSc2nnc(-c3ccco3)n2-c2ccccc2)sc2c1CCC2 -14.8%
CCCCn1c(N)c(S(=O)(=O)c2ccc(C)cc2)c2nc3ccccc3nc21 -15.3%
O=C(c1cc2cc(Cl)ccc2[nH]1)N1CCN(c2ccc(F)cc2)CC1 0.423%
COC(=O)[C@H](Cc1ccccc1)NC(=O)c1cc(COc2c(F)cccc2F)on1 0.849%
O=C(Nc1nnc(SCC(=O)N2CCCC2)s1)C1CC(=O)N(c2ccc(F)cc2)C1 (stereo not drawn) -0.985%
CCOc1ccc(NC(=O)CN(C)C(=O)c2ccncc2)cc1OCC 2.43%
COc1ccnc(Oc2ccccc2)c1C(=O)N/C=N/OCc1ccc(F)cc1Cl 3.74%
Nc1ccccc1SCC(=O)Nc1ccc(N2CCOCC2)cc1 1.5%
CCN(CC)CCNC(=O)c1c(C)n(-c2ccccc2)c2cc(Br)c(OC)cc12 0.0554%
Cc1cc(CNC(=O)CC2C(=O)NCCN2Cc2ccccc2C(F)(F)F)on1 (stereo not drawn) -2.77%
Cc1sc(NC(=O)c2ccco2)c(C(Nc2ccccn2)c2ccccc2)c1C (stereo not drawn) -5.4%
Cc1ccc(/C=N/c2sc3c(c2C#N)CCC3)s1 1.05%

Ordered by number of heavy atoms (smallest number first): nine of the compounds above
activity, negative = inhibition, inactive:
CCOc1ccc2oc(=O)cc(C)c2c1 2.04%
Cc1ccc(/C=N/c2sc3c(c2C#N)CCC3)s1 1.05%
O=[N+]([O-])c1ccccc1OCCOc1ccccc1[N+](=O)[O-] -19.2%
Nc1ccccc1SCC(=O)Nc1ccc(N2CCOCC2)cc1 1.5%
O=C(c1cc2cc(Cl)ccc2[nH]1)N1CCN(c2ccc(F)cc2)CC1 0.423%
CCOc1ccc(NC(=O)CN(C)C(=O)c2ccncc2)cc1OCC 2.43%
CCN(CC)CCNC(=O)c1c(C)n(-c2ccccc2)c2cc(Br)c(OC)cc12 0.0554%
COc1ccnc(Oc2ccccc2)c1C(=O)N/C=N/OCc1ccc(F)cc1Cl 3.74%
NC(=O)c1c(NC(=O)CSc2nnc(-c3ccco3)n2-c2ccccc2)sc2c1CCC2 -14.8%
